From US4637698A, “Photochromic compound and articles containing the same” (PPG Industries, Inc., priority 1984, dated 1987)

Key:
[1] = Photochromic response of coated diethylene glycol bis(allyl carbonate) polymer coupon to activation by artificial sunlight; type: physicochemical; conditions: Table II; for ΔOD, λmax, change in saturation optical density: 580-620 nm, irradiation for 4 minutes with artificial sunlight; for t1/2, halflife for the transmission to increase by 21% from 42% transmission: after irradiation with artificial sunlight; for ΔTR, percent reduction in visible light transmission: photopic filter, after 4 minutes irradiation with artificial sunlight, 2 mm thick coupon
Experimental: One part of the photochromic compounds of Examples 1-10 were each incorporated into a sprayable lacquer solution of 10 parts of a commercial lacquer (3M Company-lacquer No. 2253), 10 parts toluene and 10 parts methyl ethyl ketone. The lacquer solution was sprayed onto the surface of a 1 inch (2.54 cm) by 1 inch (2.54 cm) by 2 mm thick coupon of a polymer prepared from diethylene glycol bis (allyl carbonate). After drying, the coated coupon was heated in an air oven at 160° C. for 20 minutes. After cooling, the residual lacquer was stripped off with adhesive tape and the surface cleaned with an acetone-wetted cloth. The photochromic tablet was tested for photochromic response to activation by artificial sunlight.
1. ΔTR The percent reduction in visible light transmission
(measured using a photopic filter) induced after 4 minutes irradiation
with artificial sunlight.
2. ΔOD The change in saturation optical density measured in the
range of 580-620 nm induced by irradiation for 4 minutes with artificial
3. t1/2 The halflife in seconds for the transmission of a sample to
increase by 21% from 42% transmission (based on transmission in the clear
state) after irradiation with artificial sunlight.
Photochromic compounds of the prior art were applied to a coupon made from diethylene glycol (bis)allyl carbonate) in the same manner as described in Example 11. The photochromic response to these articles is compared to that of Examples 2, 3, and 4 in Table III. These photochromic compounds can be depicted by the following graphic formula, [drawing 10] wherein R4, R5, R6 and X are identified in Table III.

[2] = Photochromic response of ethanol solution to ultraviolet light; type: physicochemical; conditions: for Color of ethanol solution on irradiation with ultraviolet light: UV light (366 nm in Examples 13-15), room temperature where stated
Experimental: Ethanol solutions of each of the compounds of Examples 1-9 changed to blue when irradiated with ultraviolet light at room temperature. The solutions returned to their original hue or colorless condition after the UV light was removed.
A suspension of 5-nitroso-6-quinolinol (1.05 grams, 0.006 mole) in 30 milliliters (ml) of toluene was heated to reflux with stirring. To this heated suspension was slowly added over 20 minutes 1.37 grams of 1-butyl-3-methyl-3-ethyl-2-methylene indoline (0.006 mole) dissolved in 20 ml of toluene. The mixture in the reaction vessel was refluxed for three hours and thereafter the reaction mixture was transferred to an evaporating dish and allowed to evaporate to almost dryness. The almost dried mixture was soaked with 7 ml of fresh toluene, filtered and washed with 3 ml of toluene twice. The filtrate and washings were combined and allowed to evaporate. A viscous dark blue gum formed. The resulting gum-paste was redissolved in about 20 ml of diethyl ether, filtered and the filtrate allowed to evaporate in a hood. […] The blue color disappeared in about 5 minutes when the ultraviolet light was removed.
A suspension of 5-nitroso-6-quinolinol (0.52 grams, 0.003 mole) in 20 milliliters (ml) of toluene was heated to about 100° C. with stirring. To this heated suspension was slowly added over about 20 minutes 1.75 grams of 1,2-dimethyl-3,3-bis(p-methoxyphenyl) indolium iodide (0.003 mole) suspended in 20 ml of toluene containing 0.60 grams of triethylamine (0.006 mole). The mixture in the reaction vessel was maintained at about 100° C. for 2.5 hours and the degree of reaction monitored by thin layer chromotography (TLC). The reaction was almost complete after 1 hour. After 2.5 hours at about 100° C., an additional 0.17 grams (0.001 mole) of 5-nitroso-6-quinolinol was added to the reaction vessel, but total reaction of the indolium iodide reactant was not obtained even after 2 hours at about 100° C. The solids in the reaction mixture were separated by decantation and the remaining liquid allowed to evaporate to almost dryness. Olive green crystals formed in the almost dried paste. The almost dried product was soaked with 7 ml of fresh toluene, filtered and slowly washed with 3 ml of toluene. […] The crystalline insoluble powder was washed with ethanol and air dried. An olive green powder (0.79 grams) was obtained. A sample of the powder was dissolved in ethanol and irradiated with ultraviolet light (366 nm) for about 30 seconds.
A suspension of 5-nitroso-6-quinolinol (1.39 grams, 0.008 mole) in 35 ml of toluene was heated to about 100° C. with stirring. To this heated suspension was slowly added over 20-30 minutes 2.95 grams of 1,2,5,6,-tetramethyl-3,3-spiro (cyclohexyl)-[3H] indolium iodide suspended in 35 ml of toluene containing 1.6 grams of triethylamine (0.016 mole). The progress of the reaction was checked by TLC. The mixture in the reaction vessel was maintained at about 100° C. for three hours. Thereafter, the reaction mixture (a dark brown solution) was allowed to evaporate to almost dryness. The resulting paste was soaked with 6 ml of fresh toluene for several minutes, filtered to remove insoluble material and the resulting solids washed with 2 ml of toluene. The filtrate and washing were combined and allowed to evaporate. A dark brown paste (2.07 grams) resulted. A small amount (about 1 milligram) of the paste was dissolved in about 2-3 ml of ethanol and the resulting solution exposed to ultraviolet light (366 nm) at room temperature.

SMILES | ΔOD, λmax, change in saturation optical density [1] | t1/2, halflife for the transmission to increase by 21% from 42% transmission [1] | ΔTR, percent reduction in visible light transmission [1] | Color of ethanol solution on irradiation with ultraviolet light [2] | Time for ethanol solution to lose color / return to original hue after removal of ultraviolet light ([2]; after UV light removed) | Return of color after ultraviolet light removed (in words) ([2]; after UV light removed)
CN1c2ccccc2C2(CCCCC2)C12C=Nc1c(ccc3ncccc13)O2 (stereo not shown) [Example 9] | 0.40 | 26 s | 46% |  |  | 
CN1c2ccccc2C(c2ccccc2)(c2ccccc2)C12C=Nc1c(ccc3ncccc13)O2 (stereo not shown) [Example 8] | 0.29 | 21 s | 37% |  |  | 
CCC1(C)c2cc(C)c(C)cc2N(C)C12C=Nc1c(ccc3ncccc13)O2 (stereo not shown) [Example 1, 1,3,5,6-tetramethyl-3-ethylspiro[indoline-2,3'[3H]pyrido [3,2 f] [1,4]-benzoxazine]] | 1.33 | 57 s | 76% |  |  | 
CCC1(C)c2cc(C)c(C)cc2N(Cc2ccccc2)C12C=Nc1c(ccc3ncccc13)O2 (stereo not shown) [Example 19] |  |  |  | turned medium blue | 3 to 4 min | 
Cc1cc2c(cc1C)C1(CCCCC1)C1(C=Nc3c(ccc4ncccc34)O1)N2C (stereo not shown) [Example 14] |  |  |  | turned pale blue | about 2 minutes | 
CCCCN1c2cc(C)c(C)cc2C(C)(CC)C12C=Nc1c(ccc3ncccc13)O2 (stereo not shown) [Example 17] |  |  |  | became sky blue | about 5 minutes | 
CCN1c2cc(C)c(C)cc2C(C)(CC)C12C=Nc1c(ccc3ncccc13)O2 (stereo not shown) [Example 16] |  |  |  | became deep blue | 3 to 4 min | 
Cc1c(Cl)ccc2c1N(C)C1(C=Nc3c(ccc4ncccc34)O1)C2(C)C (stereo not shown) [Example 5] | 0.16 | 8 s |  |  |  | 
Cc1cc2c(cc1C)C(C)(C)C1(C=Nc3c(ccc4ncccc34)O1)N2C (stereo not shown) [Example 3] | 1.13 | 41 s | 72% |  |  | 
COc1ccc(C2(c3ccc(OC)cc3)c3ccccc3N(C)C23C=Nc2c(ccc4ncccc24)O3)cc1 (stereo not shown) [Example 13] |  |  |  | turned from pale green to blue |  | returned to pale green
CN1c2ccccc2C(C)(c2ccccc2)C12C=Nc1c(ccc3ncccc13)O2 (stereo not shown) [Example 7] | 0.61 | 21 s |  |  |  | 
CCCCN1c2ccccc2C(C)(CC)C12C=Nc1c(ccc3ncccc13)O2 (stereo not shown) [Example 10] | 0.67 | 21 s | 59% | turned a blue color | about 5 minutes | 
C=CCN1c2cc(C)c(C)cc2C(C)(CC)C12C=Nc1c(ccc3ncccc13)O2 (stereo not shown) [Example 15] |  |  |  | turned green | 1 to 2 min | 
CCC1(C)c2ccccc2N(C)C12C=Nc1c(ccc3ncccc13)O2 (stereo not shown) [Example 6] | 0.49 | 18 s |  |  |  | 
CCCCN1c2cc(C)c(C)cc2C(C)(C)C12C=Nc1c(ccc3ncccc13)O2 (stereo not shown) [Example 18] |  |  |  | turned a dark blue | 4 to 5 min | 
CN1c2ccccc2C(C)(C)C12C=Nc1c(ccc3ncccc13)O2 (stereo not shown) [Example 2] | 0.41 | 14 s | 48% |  |  | 
COc1ccc2c(c1)C(C)(C)C1(C=Nc3c(ccc4ncccc34)O1)N2C (stereo not shown) [Example 4] | 0.98 | 45 s | 66% |  |  | 
